Taken from: PubChem BioAssay AID504808 (Drosophila RNAi Screening Center, 2011)
Test: 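Fly genes required to hold E2F transcription in check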 (primary screen). Cells: Drosophila S2 cells. Reagents: long dsRNA against Drosophila genes. Detection: 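Firefly luciferase driven by E2F sites, normalised to Renilla luciferase on the same minimal promoter, measured by plate reader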. Direction: E2F firefly: higher = more E2F reporter activity; Renilla normaliser: higher = more normaliser reporter signal. Call rule: 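a knock-down counted as active when the firefly/Renilla E2F signal rose above 50%, a threshold chosen arbitrarily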.
The deposit covers about 21,000 reagents; shown is a random part of those with a known target gene and a result. In the full data, 18 (0.084%) were called active. 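Raw counts without plate normalisation, one of two replicates; the ratio scores behind the calls were not deposited.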 Not given: the amount of reagent, the time to read-out.

The first 7 records, to show the layout:
gene knocked down | dsRNA | E2F firefly, rep 1 | Renilla normaliser, rep 1 | outcome
CG34221 | DRSC06150 | 1.33e5 | 5014 | inactive
CG34354 | DRSC13863 | 85646 | 2535 | inactive
CG34354 | DRSC14515 | 67881 | 3556 | inactive
CG34354 | DRSC14558 | 53355 | 3674 | inactive
CG34354 | DRSC15645 | 1.27e5 | 5506 | inactive
aspr | DRSC20689 | 1.39e5 | 7209 | inactive
aspr | DRSC20690 | 1.42e5 | 242 | inactive

The list itself, from the first entry:
gene knocked down | dsRNA | E2F firefly, rep 1 | Renilla normaliser, rep 1 | outcome
CG34221 | DRSC06150 | 1.33e5 | 5014 | inactive
CG34354 | DRSC13863 | 85646 | 2535 | inactive
CG34354 | DRSC14515 | 67881 | 3556 | inactive
CG34354 | DRSC14558 | 53355 | 3674 | inactive
CG34354 | DRSC15645 | 1.27e5 | 5506 | inactive
aspr | DRSC20689 | 1.39e5 | 7209 | inactive
aspr | DRSC20690 | 1.42e5 | 242 | inactive
Cyp6a22 | DRSC07382 | 132 | 25 | inactive
RluA-1 | DRSC02240 | 1.56e5 | 5686 | inactive
RluA-1 | DRSC03060 | 1.52e5 | 5018 | inactive
PolE2 | DRSC09737 | 71536 | 3993 | inactive
CG4806 | DRSC04491 | 1.02e5 | 5085 | inactive
blw | DRSC04675 | 76532 | 3951 | inactive
stck | DRSC17070 | 1.32e5 | 6304 | inactive
CG11629 | DRSC03695 | 1.08e5 | 4639 | inactive
l(3)72Dn | DRSC10468 | 83995 | 3300 | inactive
Nagk | DRSC15994 | 81443 | 3797 | inactive
CG1537 | DRSC19662 | 1.34e5 | 7436 | inactive
Frmd5 | DRSC02802 | 1.59e5 | 5273 | inactive
MRP | DRSC02942 | 73823 | 3498 | inactive
CG13471 | DRSC10015 | 1.45e5 | 8157 | inactive
Asciz | DRSC08421 | 90960 | 3735 | inactive
CR42745 (retired record) | DRSC13756 | 89784 | 2182 | inactive
CG14082 | DRSC10086 | 1.49e5 | 6697 | inactive
Vajk2 | DRSC02540 | 97999 | 4272 | inactive
yellow-e3 | DRSC15170 | 1.34e5 | 7012 | inactive
CG14641 | DRSC12227 | 71190 | 4506 | inactive
Tmem214 | DRSC02924 | 1.69e5 | 5030 | inactive
Tmem214 | DRSC02925 | 1.62e5 | 5141 | inactive
up | DRSC20382 | 6916 | 800 | inactive
CG11771 | DRSC14379 | 74538 | 3233 | inactive
CG12849 | DRSC04129 | 1.20e5 | 4516 | inactive
Dhfr | DRSC16646 | 1.09e5 | 5703 | inactive
spag4 | DRSC02973 | 1.45e5 | 5092 | inactive
CG14422 | DRSC17919 | 1.15e5 | 6023 | inactive
CG10799 | DRSC06002 | 97999 | 3965 | inactive
Vha16-2 | DRSC10873 | 1.25e5 | 6859 | inactive
CG5199 | DRSC11770 | 1.53e5 | 7289 | inactive
prd | DRSC03597 | 86155 | 3972 | inactive
CG13306 | DRSC09976 | 1.08e5 | 4576 | inactive
stx | DRSC18442 | 90858 | 4005 | inactive
stx | DRSC18443 | 89851 | 4296 | inactive
Coop | DRSC06604 | 79344 | 3572 | inactive
Inx5 | DRSC20051 | 1.33e5 | 6364 | inactive
Mer | DRSC20259 | 1.64e5 | 5372 | inactive
TBC1d7 | DRSC15985 | 97361 | 5317 | inactive
CG5235 | DRSC10494 | 1.96e5 | 8603 | inactive
ClC-a | DRSC14947 | 1.34e5 | 5632 | inactive
ClC-a | DRSC14948 | 1.29e5 | 6045 | inactive
ClC-a | DRSC16142 | 65207 | 3392 | inactive
Pld | DRSC04854 | 84477 | 4200 | inactive
Cont | DRSC12149 | 79441 | 3405 | inactive
Cpr11A | DRSC19861 | 31446 | 2429 | inactive
Ir76a | DRSC10987 | 70637 | 3459 | inactive
Adgf-B | DRSC10568 | 1.69e5 | 7902 | inactive
eIF4H1 | DRSC20276 | 2.00e5 | 7029 | inactive
Vha16-1 | DRSC05020 | 1.13e5 | 4484 | inactive
